Assay results published in paper PMC5861120, “Architecture of the Saccharomyces cerevisiae NuA4/TIP60 complex” (Nature Communications, 2018).
These are yes or no findings as the source states them, for the method shown. Binding seen in cells or lysates may run through a third protein. Here binding means that the protein was enriched with, or labelled near, the bait; the list need not be complete. For some assays here: No binding means not detected with the bait.

Experiments:
[1] = molecular target: T1, Epl1 used as the handle of tandem affinity purification (S. cerevisiae) (UniProt P43572); test: condition: only NuA4 from cells whose Eaf1 is mutated in the SANT domain; affinity purification with mass spectrometry; NuA4 purified by TAP from yeast whose Eaf1 is mutated in the SANT domain; mass spec data in Supplementary Table 2
T1 sequence: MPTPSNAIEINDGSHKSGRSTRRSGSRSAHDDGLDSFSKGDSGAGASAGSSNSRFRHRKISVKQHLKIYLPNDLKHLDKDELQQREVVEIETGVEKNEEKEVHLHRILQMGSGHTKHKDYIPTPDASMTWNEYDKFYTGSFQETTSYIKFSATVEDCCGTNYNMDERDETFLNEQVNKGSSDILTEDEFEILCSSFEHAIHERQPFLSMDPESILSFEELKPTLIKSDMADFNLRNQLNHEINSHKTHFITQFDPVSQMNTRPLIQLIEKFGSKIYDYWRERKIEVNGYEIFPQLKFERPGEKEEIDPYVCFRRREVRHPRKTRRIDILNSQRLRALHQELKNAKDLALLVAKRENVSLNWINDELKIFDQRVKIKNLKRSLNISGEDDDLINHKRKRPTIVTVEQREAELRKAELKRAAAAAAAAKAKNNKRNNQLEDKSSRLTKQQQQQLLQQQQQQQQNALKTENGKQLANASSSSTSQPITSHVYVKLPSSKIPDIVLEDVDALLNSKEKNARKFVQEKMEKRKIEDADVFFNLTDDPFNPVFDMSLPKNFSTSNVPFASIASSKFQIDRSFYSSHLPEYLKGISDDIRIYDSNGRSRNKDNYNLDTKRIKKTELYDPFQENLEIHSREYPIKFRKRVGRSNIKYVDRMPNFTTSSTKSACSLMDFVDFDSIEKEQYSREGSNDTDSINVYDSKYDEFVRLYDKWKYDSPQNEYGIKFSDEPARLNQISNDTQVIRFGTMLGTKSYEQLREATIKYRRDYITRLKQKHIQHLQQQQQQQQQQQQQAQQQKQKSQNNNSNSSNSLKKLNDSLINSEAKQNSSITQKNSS

[2] = molecular target: T1, Epl1 used as the handle of tandem affinity purification (S. cerevisiae); test: affinity purification with mass spectrometry; NuA4 purified by TAP from yeast with wild type Eaf1; mass spec data in Supplementary Table 2

B1: Yap1 transcription factor (protein, UniProt P19880 1-650)
chain: MSVSTAKRSLDVVSPGSLAEFEGSKSRHDEIENEHRRTGTRDGEDSEQPKKKGSKTSKKQDLDPETKQKRTAQNRAAQRAFRERKERKMKELEKKVQSLESIQQQNEVEATFLRDQLITLVNELKKYRPETRNDSKVLEYLARRDPNLHFSKNNVNHSNSEPIDTPNDDIQENVKQKMNFTFQYPLDNDNDNDNSKNVGKQLPSPNDPSHSAPMPINQTQKKLSDATDSSSATLDSLSNSNDVLNNTPNSSTSMDWLDNVIYTNRFVSGDDGSNSKTKNLDSNMFSNDFNFENQFDEQVSEFCSKMNQVCGTRQCPIPKKPISALDKEVFASSSILSSNSPALTNTWESHSNITDNTPANVIATDATKYENSFSGFGRLGFDMSANHYVVNDNSTGSTDSTGSTGNKNKKNNNNSDDVLPFISESPFDMNQVTNFFSPGSTGIGNNAASNTNPSLLQSSKEDIPFINANLAFPDDNSTNIQLQPFSESQSQNKFDYDMFFRDSSKEGNNLFGEFLEDDDDDKKAANMSDDESSLIKNQLINEEPELPKQYLQSVPGNESEISQKNGSSLQNADKINNGNDNDNDNDVVPSKEGSLLRCSEIWDRITTHPKYSDIDVDGLCSELMAKAKCSERGVVINAEDVQLALNKHMN
binding [1]: no binding | binding [2]: binds
